Assay [1] concerns the target HYC2-GFP (Arabidopsis thaliana). Nature of the assay: co-IP.
Assay [2] has as its target HYC2 (yeast two-hybrid fusion) (Arabidopsis thaliana) (UniProt Q9FMI8). Nature of the assay: two-hybrid.

By UniProt entry, the sequences of proteins in these tests, tags left out. Where a name states a change or a piece, a line headed by the entry shows the natural chain unless it says otherwise.
UniProt Q9FMI8: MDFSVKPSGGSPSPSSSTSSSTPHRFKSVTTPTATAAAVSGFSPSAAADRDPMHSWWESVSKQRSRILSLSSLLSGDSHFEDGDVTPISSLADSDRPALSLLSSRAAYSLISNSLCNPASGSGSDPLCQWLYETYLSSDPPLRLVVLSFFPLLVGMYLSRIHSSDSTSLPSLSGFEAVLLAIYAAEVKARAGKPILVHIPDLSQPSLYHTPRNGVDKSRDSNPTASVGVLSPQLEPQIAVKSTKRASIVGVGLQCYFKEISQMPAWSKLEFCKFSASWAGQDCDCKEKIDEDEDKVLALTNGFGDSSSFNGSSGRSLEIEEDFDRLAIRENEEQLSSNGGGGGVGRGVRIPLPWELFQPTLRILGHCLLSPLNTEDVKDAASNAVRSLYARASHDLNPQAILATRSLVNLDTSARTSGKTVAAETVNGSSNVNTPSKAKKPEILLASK

No constants are given. Whether binding was seen depends on the method and setting. A result given as binding can be weak or reduced; the word gives no strength. Sequences can lack the tags named with a protein. For part of these data: In cells and extracts the contact can be indirect.

For three molecules, binding results are on record in publication doi:10.1101/2024.09.06.611148.

B1: DRP1A-FLAG (protein, UniProt P42697 1-610)
chain: MENLISLVNKIQRACTALGDHGDSSALPTLWDSLPAIAVVGGQSSGKSSVLESIVGKDFLPRGSGIVTRRPLVLQLQKIDDGTREYAEFLHLPRKKFTDFAAVRKEIQDETDRETGRSKAISSVPIHLSIYSPNVVNLTLIDLPGLTKVAVDGQSDSIVKDIENMVRSYIEKPNCIILAISPANQDLATSDAIKISREVDPSGDRTFGVLTKIDLMDKGTDAVEILEGRSFKLKYPWVGVVNRSQADINKNVDMIAARKREREYFSNTTEYRHLANKMGSEHLAKMLSKHLERVIKSRIPGIQSLINKTVLELETELSRLGKPIAADAGGKLYSIMEICRLFDQIFKEHLDGVRAGGEKVYNVFDNQLPAALKRLQFDKQLAMDNIRKLVTEADGYQPHLIAPEQGYRRLIESSIVSIRGPAEASVDTVHAILKDLVHKSVNETVELKQYPALRVEVTNAAIESLDKMREGSKKATLQLVDMECSYLTVDFFRKLPQDVEKGGNPTHSIFDRYNDSYLRRIGSNVLSYVNMVCAGLRNSIPKSIVYCQVREAKRSLLDHFFAELGTMDMKRLSSLLNEDPAIMERRSAISKRLELYRAAQSEIDAVAWSK
Regarding B1, the binding result in assay [1] is reported as “binds”.

B2: SH3 domain-containing protein 2 (yeast two-hybrid fusion) (protein, UniProt Q8VWF1 1-368)
chain: MDAIRKQASRLREQVARQQQAVFKQFGGGGYGSGLADEAELNQHQKLEKLYISTRAAKHYQRDIVRGVEGYIVTGSKQVEIGTKLSEDSRKYGSENTCTNGNVLTRAALNYGRARAQMEKERGNMLKALGTQVAEPLRAMVLGAPLEDARHLAQRYDRMRQEAEAQATEVARRQAKARESQGNPDILMKLESAEAKLHDLKSNMTILGKEAASALASVEDQQQKLTLERLLSMVESERAYHQRVLQILDQLEGEMVSERQRIEAPSTPSSADSMPPPPSYEEANGVFASQMHDTSTDSMGYFLGEVLFPYHGVTDVELSLSTGEYVVVRKVTGSGWAEGECKGKAGWFPYGYIERRERVLASKVSEVF
For the molecule B2, the binding entry in assay [2] is recorded as “binds weakly”.

B3: SH3P2-FLAG (protein, UniProt Q8VWF1 1-368)
chain: MDAIRKQASRLREQVARQQQAVFKQFGGGGYGSGLADEAELNQHQKLEKLYISTRAAKHYQRDIVRGVEGYIVTGSKQVEIGTKLSEDSRKYGSENTCTNGNVLTRAALNYGRARAQMEKERGNMLKALGTQVAEPLRAMVLGAPLEDARHLAQRYDRMRQEAEAQATEVARRQAKARESQGNPDILMKLESAEAKLHDLKSNMTILGKEAASALASVEDQQQKLTLERLLSMVESERAYHQRVLQILDQLEGEMVSERQRIEAPSTPSSADSMPPPPSYEEANGVFASQMHDTSTDSMGYFLGEVLFPYHGVTDVELSLSTGEYVVVRKVTGSGWAEGECKGKAGWFPYGYIERRERVLASKVSEVF
As for B3, the binding result in assay [1] is given as “binds”.
